Experiment [1] concerns the target p65 (human (endogenous in U-RT1)) (UniProt Q04206). As to the kind of experiment: co-IP; control anti-p65 (rabbit) immunoprecipitation from whole protein extract of U-RT1 cells in TNT++ buffer, overnight at 4 °C, protein G Sepharose; immunoblots for MALT1, p65 and BCL10.
Experiment [2] has as its target T1, BCL10 (human (endogenous in U-RT1 and HBL-1)) (UniProt O95999).
T1 sequence: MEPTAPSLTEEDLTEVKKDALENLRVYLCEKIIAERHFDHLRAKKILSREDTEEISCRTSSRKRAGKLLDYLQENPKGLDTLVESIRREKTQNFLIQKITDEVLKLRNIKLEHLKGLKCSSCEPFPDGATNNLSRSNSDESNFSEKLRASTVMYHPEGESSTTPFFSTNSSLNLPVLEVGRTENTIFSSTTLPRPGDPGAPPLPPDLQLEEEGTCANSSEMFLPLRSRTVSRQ
As to the kind of experiment: co-IP; anti-BCL10 (goat, C17) immunoprecipitation from 0.5-1 mg whole protein extract of U-RT1 and HBL-1 cells in TNT++ buffer (20 mM Tris pH 8.0, 200 mM NaCl, 1% Triton-X100, 1 mM DTT), overnight at 4 °C, protein G Sepharose; immunoblots for MALT1, CARD9 and BCL10.

The chains behind the UniProt entries cited, without tags or fusion partners.
UniProt Q04206: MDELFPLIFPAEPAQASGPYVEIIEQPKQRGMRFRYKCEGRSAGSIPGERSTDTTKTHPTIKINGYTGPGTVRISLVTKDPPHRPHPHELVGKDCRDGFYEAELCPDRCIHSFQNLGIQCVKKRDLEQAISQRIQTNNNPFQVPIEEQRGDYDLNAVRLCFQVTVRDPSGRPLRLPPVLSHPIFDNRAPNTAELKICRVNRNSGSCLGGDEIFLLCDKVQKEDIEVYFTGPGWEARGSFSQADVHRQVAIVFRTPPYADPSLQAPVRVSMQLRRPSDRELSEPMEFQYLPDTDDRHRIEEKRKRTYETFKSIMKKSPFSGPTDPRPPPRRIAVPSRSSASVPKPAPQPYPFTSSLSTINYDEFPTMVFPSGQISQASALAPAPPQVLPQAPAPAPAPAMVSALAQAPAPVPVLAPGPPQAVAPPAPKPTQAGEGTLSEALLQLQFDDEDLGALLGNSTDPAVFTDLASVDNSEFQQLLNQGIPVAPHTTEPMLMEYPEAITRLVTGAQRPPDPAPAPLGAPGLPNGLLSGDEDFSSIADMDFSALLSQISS
UniProt Q9UDY8: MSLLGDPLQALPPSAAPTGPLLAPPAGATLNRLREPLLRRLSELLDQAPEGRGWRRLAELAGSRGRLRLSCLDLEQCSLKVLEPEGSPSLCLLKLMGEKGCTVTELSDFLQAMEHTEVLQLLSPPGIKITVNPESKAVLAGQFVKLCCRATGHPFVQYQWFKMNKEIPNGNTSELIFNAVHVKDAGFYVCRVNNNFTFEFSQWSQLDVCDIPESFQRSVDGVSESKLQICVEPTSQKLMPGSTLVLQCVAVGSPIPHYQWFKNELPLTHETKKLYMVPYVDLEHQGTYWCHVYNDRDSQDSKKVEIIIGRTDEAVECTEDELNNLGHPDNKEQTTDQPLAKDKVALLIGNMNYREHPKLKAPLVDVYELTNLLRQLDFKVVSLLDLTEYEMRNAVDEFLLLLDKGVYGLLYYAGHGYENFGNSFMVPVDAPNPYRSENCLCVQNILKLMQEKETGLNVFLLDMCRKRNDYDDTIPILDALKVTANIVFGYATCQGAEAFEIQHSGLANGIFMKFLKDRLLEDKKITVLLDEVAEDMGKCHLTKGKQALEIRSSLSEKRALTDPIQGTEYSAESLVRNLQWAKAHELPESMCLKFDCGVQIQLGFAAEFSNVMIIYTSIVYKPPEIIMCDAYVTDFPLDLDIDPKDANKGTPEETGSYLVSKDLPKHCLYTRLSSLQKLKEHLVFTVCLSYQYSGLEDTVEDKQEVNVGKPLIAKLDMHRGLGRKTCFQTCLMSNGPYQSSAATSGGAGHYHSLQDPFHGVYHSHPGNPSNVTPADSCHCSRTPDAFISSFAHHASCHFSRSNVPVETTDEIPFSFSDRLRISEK

Experiment [3] deals with T2, BCL10 (human (endogenous in U-RT1 and HBL-1)), O95999.
T2 chain: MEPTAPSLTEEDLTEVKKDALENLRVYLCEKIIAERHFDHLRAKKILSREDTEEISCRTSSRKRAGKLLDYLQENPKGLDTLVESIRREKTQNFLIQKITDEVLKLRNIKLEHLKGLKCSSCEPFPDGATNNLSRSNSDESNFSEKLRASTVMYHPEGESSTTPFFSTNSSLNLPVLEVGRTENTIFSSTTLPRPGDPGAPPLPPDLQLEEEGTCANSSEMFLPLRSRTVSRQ
The experiment is described as above. The note with it: remark: other sources report otherwise.

Results are given in words; binding and its absence hold for the method and conditions named. Binding seen in cells or lysates may run through a third protein. Some results given as binding are weak or reduced against the parent protein; the word gives no strength.

With MALT1 (from UniProt Q9UDY8 1-824), the binding result was “no binding” in experiment [1] and “binds” in experiment [2].

B1: BCL10 (protein, UniProt O95999 1-233)
chain: MEPTAPSLTEEDLTEVKKDALENLRVYLCEKIIAERHFDHLRAKKILSREDTEEISCRTSSRKRAGKLLDYLQENPKGLDTLVESIRREKTQNFLIQKITDEVLKLRNIKLEHLKGLKCSSCEPFPDGATNNLSRSNSDESNFSEKLRASTVMYHPEGESSTTPFFSTNSSLNLPVLEVGRTENTIFSSTTLPRPGDPGAPPLPPDLQLEEEGTCANSSEMFLPLRSRTVSRQ
For the molecule B1, in experiment [1], the binding result was “no binding”.

B2: CARD9, Q9H257 1-536 (protein)
chain: MSDYENDDECWSVLEGFRVTLTSVIDPSRITPYLRQCKVLNPDDEEQVLSDPNLVIRKRKVGVLLDILQRTGHKGYVAFLESLELYYPQLYKKVTGKEPARVFSMIIDASGESGLTQLLMTEVMKLQKKVQDLTALLSSKDDFIKELRVKDSLLRKHQERVQRLKEECEAGSRELKRCKEENYDLAMRLAHQSEEKGAALMRNRDLQLEIDQLKHSLMKAEDDCKVERKHTLKLRHAMEQRPSQELLWELQQEKALLQARVQELEASVQEGKLDRSSPYIQVLEEDWRQALRDHQEQANTIFSLRKDLRQGEARRLRCMEEKEMFELQCLALRKDSKMYKDRIEAILLQMEEVAIERDQAIATREELHAQHARGLQEKDALRKQVRELGEKADELQLQVFQCEAQLLAVEGRLRRQQLETLVLSSDLEDGSPRRSQELSLPQDLEDTQLSDKGCLAGGGSPKQPFAALHQEQVLRNPHDAGLSSGEPPEKERRRLKESFENYRRKRALRKMQKGWRQGEEDRENTTGSDNTDTEGS
As to B2, the binding entry in experiment [3] is listed as “binds”.
